Experimental data taken from PubChem BioAssay AID886 (National Center for Advancing Translational Sciences (NCATS), 2007).
Most of the hits are listed elsewhere, so they are rarer here than in the full data. Results filed as inconclusive are left out. Calls of active or inactive are those of the source. The call rests on the fitted dose curve; in most records, active means well fitted inhibition curve with a large enough effect; inconclusive means small, poorly fitted or top-dose-only effect; inactive means no such curve, though single readings can be large or run the other way.

The chains behind the UniProt entries cited, without tags or fusion partners. Where a name states a change or a piece, a line headed by the entry shows the natural chain unless it says otherwise.
UniProt Q99714: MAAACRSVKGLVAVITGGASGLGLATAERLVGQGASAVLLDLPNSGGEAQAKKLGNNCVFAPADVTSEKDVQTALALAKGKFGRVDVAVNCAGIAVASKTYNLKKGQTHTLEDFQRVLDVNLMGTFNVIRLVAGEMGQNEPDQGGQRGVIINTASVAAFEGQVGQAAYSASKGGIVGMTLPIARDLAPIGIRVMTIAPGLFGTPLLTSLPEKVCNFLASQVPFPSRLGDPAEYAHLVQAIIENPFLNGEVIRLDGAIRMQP

Target: 3-hydroxyacyl-CoA dehydrogenase type-2 (Homo sapiens) (UniProt Q99714)
Assay: qHTS Assay for Inhibitors of HADH2 (Hydroxyacyl-Coenzyme A Dehydrogenase, Type II); further: nearly all actives have a fitted effect of over 60% in size
Conditions: recombinant HADH2, NADH fluorescence, beta-hydroxybutyryl-CoA
Source text: Assay Overview: NIH Molecular Libraries Screening Centers Network [MLSCN] NIH Chemical Genomics Center [NCGC] Structural Genomics Consortium [SGC] Grant Number: None HADH2: Hydroxyacyl-Coenzyme A dehydrogenase, type II, was supplied by researchers at the Structural Genomics Consortium, Oxford University lab (PI Udo Oppermann). The mitochondrial enzyme 17-hydroxysteroid dehydrogenase type 10 (HSD17-10) previously classified as type II hydroxyacyl-CoA dehydrogenase (HADH2) catalyzes the NAD+ dependent oxidation of a variety of substrates including acyl-CoAs, androgens and neurosteroids as well as bile acids(Shafqat N, Marschall HU, Filling C, et al. Biochemical Journal. 2003;376(Pt 1):49-60). […] An increase in the fluorescence intensity due to conversion of NAD+ to NADH was used to measure the enzyme activity.
Assay Protocol: Buffer: 100 mM Tris-HCl pH 9.0, containing 0.01 % Tween-20. […] The plates were immediately transferred to and read every 30 seconds for 4 min on ViewLux High-throughput CCD imager (Perkin-Elmer) using 360 nm excitation and 450 nm emission fluorescence protocol. The fluorescence intensity difference between the last and the first time points was used to compute reaction progress.
On the % scale 0 is the no-effect control and ±100 the full control effect.

Structure (SMILES): CN1[C@@H]2CC[C@H]1CC(OC(=O)[C@@H](O)c1ccccc1)C2 (some centres not stated)
- activity change, negative = inhibition (at 11.4 µM (top of the series)): inactive: 3.97%
- activity change, negative = inhibition (at 25.6 µM (top of the series)): inactive: -6.34%
